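Methionyl-tRNA synthetase (putative), Leishmania donovani (UniProt E9BF75). Primary screen of methionyl-tRNA synthetase; the read-out is not stated. The test concentration is not given. The values are filed as inhibition. Of about 68,000 compounds tested this way, about 24 (0.035%) reached 50% or more in at least one test.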

Amino acid sequences for entries named in this document (tags omitted).
UniProt E9BF75, entry or part of it: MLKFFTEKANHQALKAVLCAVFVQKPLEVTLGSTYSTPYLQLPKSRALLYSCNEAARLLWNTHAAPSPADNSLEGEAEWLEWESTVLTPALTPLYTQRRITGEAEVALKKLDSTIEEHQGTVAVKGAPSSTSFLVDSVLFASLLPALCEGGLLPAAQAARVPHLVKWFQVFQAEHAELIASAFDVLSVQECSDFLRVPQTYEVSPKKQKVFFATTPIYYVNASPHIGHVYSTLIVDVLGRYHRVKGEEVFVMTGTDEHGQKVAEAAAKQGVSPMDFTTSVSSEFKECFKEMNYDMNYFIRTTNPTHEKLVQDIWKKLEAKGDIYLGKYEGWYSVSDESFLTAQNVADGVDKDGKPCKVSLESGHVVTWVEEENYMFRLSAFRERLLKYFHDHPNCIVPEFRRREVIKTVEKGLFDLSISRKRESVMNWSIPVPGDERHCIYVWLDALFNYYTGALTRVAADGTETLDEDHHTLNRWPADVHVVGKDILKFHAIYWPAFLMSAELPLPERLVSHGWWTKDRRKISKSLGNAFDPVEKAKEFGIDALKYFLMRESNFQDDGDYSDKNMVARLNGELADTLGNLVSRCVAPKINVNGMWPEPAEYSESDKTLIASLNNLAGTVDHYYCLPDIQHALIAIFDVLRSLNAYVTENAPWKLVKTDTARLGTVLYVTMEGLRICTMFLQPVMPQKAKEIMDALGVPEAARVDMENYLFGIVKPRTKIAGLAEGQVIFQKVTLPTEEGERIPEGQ

Results are percentages, as filed.
How 0% and 100% were set is not recorded. Most values in the screen are low, and negative values occur.
Compounds were drawn at random from those tested, without regard to their results.

* Cc1nn(C)c(C)c1NC(=O)CN1CCCC1c1noc(C2CC2)n1 (centres undefined) : 5.419%
* CCC(=O)NCC(CC)Oc1cccc(F)c1 (centres undefined) : 19.06%
* COc1ccc(CCN2CCCC(CN(C)Cc3[nH]cnc3C)C2)cc1 (centres undefined) : 9.763%
* Cc1cccc(C(=O)Nc2c(C(=O)N(C)C)nn(C)c2C)c1 : 19.35%
* CCc1ccccc1C(=O)N1CCCC1CC(=O)c1cnn(C)c1 (centres undefined) : 11.97%
* CN(Cc1cnn(C)c1)C(=O)c1ccc(Cl)c(N2CCNC2=O)c1 : 5.621%
* Cc1n[nH]c(C2CN(C(=O)Cn3ccccc3=O)CCO2)n1 (centres undefined) : 11.11%
* c1cnc(-c2nc(CN3CCn4c(nnc4C4CC4)C3)cs2)nc1 : 4.7%
* Cc1ccsc1C(CNC(=O)c1cc(=O)c2ccccc2[nH]1)N(C)C (centres undefined) : 15.18%
* O=C(CCc1ccc2c(c1)CCO2)Nc1nnn[nH]1 : 20.33%
* CC(C)c1cc(C(=O)N2CCC3(CCc4ccccc4C(=O)N3)C2)on1 (centres undefined) : 18.07%
* Cn1nccc1CNC(=O)NC1CCN(c2ncccc2Cl)C1 (centres undefined) : 15.28%
* Cn1cnc(S(=O)(=O)N2CCCc3c(F)cc(F)cc32)c1Cl : 23.87%
* CC(C#N)NS(=O)(=O)c1cccc(C(C)C)c1 (centres undefined) : 10.03%
* c1csc(-c2nnc(CSCCN3CCOCC3)o2)c1 : 28.53%
* Cc1nn(C)cc1-c1ccnc(N(C)Cc2ccon2)n1 : 21.7%
* Cc1cc(C(=O)N(C)C)c2c(Br)cccc2n1 : 13.8%
* Cc1cccc(OCCC(=O)N(C)CCC#N)c1C : 19.01%
* CN(C)C(=O)CCC[S+]([O-])Cc1cc(Cl)ccc1Cl (centres undefined) : 3.896%
* CCn1cc(N2Cc3nc(N4CCCC4)ncc3C2=O)cn1 : -18.84%
* Cc1c[nH]c(CN2CCCn3nc(CNS(C)(=O)=O)cc3C2)n1 : 12.09%
* CCN1C(=O)C2(CCOCC2)c2cc(NC(=O)c3cc(C)n[nH]3)ccc21 : 3.226%
* COc1ncccc1CNC(=O)NCCNC(=O)c1ccco1 : 16.08%
* CCc1nccn1C1CCCN(C(=O)CCCNc2ncccn2)C1 (centres undefined) : 17.36%
* CC(Cc1cnccn1)NC(=O)c1cccc(CC2CCNCC2)c1 (centres undefined) : -0.2674%
* CC(=O)N1CCO[C@@H]2CN(Cc3cccc(Cl)c3)C[C@@H]2C1 : 18.7%
* CSCC(=O)N(C)Cc1ccc(N(C)C)cc1 : 10.48%
* Cc1ncnc(NCC(C)N(C)c2ccccc2)c1C (centres undefined) : 5.333%
* Cc1cc(CN2CCOCS2(=O)=O)ccc1F : 10.51%
* CCOCc1cnc2n1CCN(C(=O)c1cn(C)c3ccccc13)C2C (centres undefined) : 12.32%
* CCC(C)NC(=O)Cn1ccc2sc(C)cc2c1=O (centres undefined) : 3.944%
* CCN(C)Cc1cccc(CNC(=O)NCCc2ccccn2)c1 : 13.97%
* COc1ccc(-c2nnc(SC(C)C(=O)NC3CCCC3)[nH]2)c(OC)c1 (centres undefined) : 9.019%
* CC[C@@H](CO)Nc1nccc(-c2c[nH]c3cc(C(=O)OC)ccc23)n1 : 14.32%

The first 4 entries again:

| SMILES | Inhibition |
|---|---|
| `Cc1nn(C)c(C)c1NC(=O)CN1CCCC1c1noc(C2CC2)n1` (centres undefined) | 5.419 |
| `CCC(=O)NCC(CC)Oc1cccc(F)c1` (centres undefined) | 19.06 |
| `COc1ccc(CCN2CCCC(CN(C)Cc3[nH]cnc3C)C2)cc1` (centres undefined) | 9.763 |
| `Cc1cccc(C(=O)Nc2c(C(=O)N(C)C)nn(C)c2C)c1` | 19.35 |

Source: ChEMBL document CHEMBL3988442, “University of Dundee, Small-Polar-MMV Screening Library” (2021).